Values of other authors in US20060013862A1, “Onychomycosis: a new process for cure” (priority 2004, published 2006).
At least one structure is not confirmed: it was looked up by name or label, or the drawing left a doubt.

Tested on: onychomycosis
[1] = itraconazole vs terbinafine-treated patients

CCC(C)n1ncn(-c2ccc(N3CCN(c4ccc(OCC5COC(Cn6cncn6)(c6ccc(Cl)cc6Cl)O5)cc4)CC3)cc2)c1=O (stereo not drawn) [itraconazole]
Mycological relapse rate [1]: 53% | clinical relapse rate [1]: 48% | Mycological cure without second intervention treatment (share of treated subjects (34 of 74 terbinafine)): 13%
